Results on 42 sequences are retold here after PMC7819943, “Rice protein-binding microarrays: a tool to detect cis-acting elements near promoter regions in rice”.

Sequences of proteins named here, by UniProt entry; tags and fusion partners are left off.
UniProt Q0JBA9, entry or part of it: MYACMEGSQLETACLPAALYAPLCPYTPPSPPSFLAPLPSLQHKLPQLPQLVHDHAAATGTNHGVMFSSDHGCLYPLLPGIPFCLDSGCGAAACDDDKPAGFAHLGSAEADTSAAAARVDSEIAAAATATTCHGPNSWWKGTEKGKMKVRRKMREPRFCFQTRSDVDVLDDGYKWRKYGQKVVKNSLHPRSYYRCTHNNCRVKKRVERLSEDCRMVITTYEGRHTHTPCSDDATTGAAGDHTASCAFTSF

Some of the results follow.

The assay has as its target OsWRKY34 (Oryza sativa, UniProt Q0JBA9 1-250). The assay is described as follows: protein-binding microarray (RPBM); PBS, 2% BSA, 51.3 ng/ul salmon testes DNA, 50 uM zinc acetate, 200 nM TF, 25 C, 1 h; high values mean tight binding. The conditions noted are these: protein: recombinant; tags: N-terminal polyhistidine and DsRed monomer fusion (pET32a); label: CyDye5-dUTP incorporated in the synthesized complementary strand; 3' TTTTT single-stranded linker to array surface; dsDNA, one strand shown. The procedure, abridged:
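Transcription factors were made in E. coli BL21-CodonPlus as N-terminal fusions to a polyhistidine tag and DsRed, then purified on Ni–NTA. After primer extension with Cy5-dUTP and blocking with 2% BSA, a custom Agilent array was exposed for 1 h at 25 °C to 200 nM protein in PBS, 2% BSA, salmon testes DNA and 50 µM zinc acetate. Washed arrays were scanned on an Axon 4000B, and the binding signal is per-feature fluorescence intensity in arbitrary units.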
Turning to “GCTGAGAGAGAGAGATGGTTGAATTTGCTATAGTTAGGCACGGAGTCACCTAGTGCAG”, the binding signal is 8450 fluorescence intensity (a.u.).

Turning to “AACCACGCTTTCCTATGGCCCACCTGTCATGTAATCAGTTCGGAGTCACCTAGTGCAG”, the binding signal was 11500 fluorescence intensity (a.u.).

For “GCTCGGTTGCATACCAAATGTCTTCTCCTACAGCATTCTTCGGAGTCACCTAGTGCAG”, the binding signal is 9920 fluorescence intensity (a.u.).

Consider “TGTAAGTTTCCAGTGTTCACATTTAACCGTTCGTCTTATTCGGAGTCACCTAGTGCAG”, for which the binding signal was 8640 fluorescence intensity (a.u.).

On to “GAATGCAAACAACGCTTATCCATTATGTTTCGCTTTGTATCGGAGTCACCTAGTGCAG”, for which the binding signal is 8480 fluorescence intensity (a.u.).

As to “CTGGTCAGTTGGTCTTGTGTTTTGGGCTTTTTCGGCCCGTCGGAGTCACCTAGTGCAG”, the binding signal was 12200 fluorescence intensity (a.u.).

Turning to “CAAATGTTGGACACGGAAACCAGGGTTTGTCTTTTTTTTTCGGAGTCACCTAGTGCAG”, the binding signal is 8610 fluorescence intensity (a.u.).

As to “GCAGCTACCACTCCAGCTTATCCATCTCATCATCCATTCCCGGAGTCACCTAGTGCAG”, the binding signal was 10200 fluorescence intensity (a.u.).

In the case of “TCGTGCAAAACCGGGGAGGGGTTGTTTGAGGAAAGAGGAACGGAGTCACCTAGTGCAG”, the binding signal is 8460 fluorescence intensity (a.u.).

For “TTGAATAATTGTGTGTTCCTTATCTTGGTCTGGTCACTTTCGGAGTCACCTAGTGCAG”, the binding signal is 10300 fluorescence intensity (a.u.).

For “GTGTAGATTGATTGGTTCTTGGTGGTGGTGGTGGTGGATCCGGAGTCACCTAGTGCAG”, the binding signal is 22200 fluorescence intensity (a.u.).

As to “GGAGGAGCGGTGCGTGGGGTCAGCGGCCGGCGGGAGGGCACGGAGTCACCTAGTGCAG”, the binding signal was 9670 fluorescence intensity (a.u.).

As to “CATCAGTGTCAGTAATTTGCCCTATGTTTTTAGATCAAGACGGAGTCACCTAGTGCAG”, the binding signal was 9290 fluorescence intensity (a.u.).

Turning to “CGACGACCAGACCACGCATTTCTTTTCTTTTTTTCTTTTTCGGAGTCACCTAGTGCAG”, the binding signal was 15000 fluorescence intensity (a.u.).

For the sequence “CTTATCCATCCGCACCCACCTCCTCCATCCTGCTATAAACCGGAGTCACCTAGTGCAG”, the binding signal is 8400 fluorescence intensity (a.u.).

Turning to “GCTTCGGGCATCGTCTCTCCCAGCGCCGGCCGGACCGATGCGGAGTCACCTAGTGCAG”, the binding signal is 8660 fluorescence intensity (a.u.).

With “AAATTTCTAGCCTCCACAGCGAACGTGATTATGTATTTTTCGGAGTCACCTAGTGCAG”, the binding signal was 8780 fluorescence intensity (a.u.).

“CGTAGAAGGGATTGGGTGAAATTACAGGGGCATGTAGGTACGGAGTCACCTAGTGCAG”: the binding signal was 9960 fluorescence intensity (a.u.).

Consider “TGACAAGCAGACCCCGTATTTTTTCTTCTCACTTCACTTACGGAGTCACCTAGTGCAG”, for which the binding signal was 11000 fluorescence intensity (a.u.).

As for “AGCCTATTTCATTTGATATATCATGGTGCATGATCTAATTCGGAGTCACCTAGTGCAG”, the binding signal was 11100 fluorescence intensity (a.u.).

Regarding “TCATATCTGTAGCCCGCTGCTTTTCTGTCTCTTTATCTCTCGGAGTCACCTAGTGCAG”, the binding signal is 12800 fluorescence intensity (a.u.).

As for “GTGTTGGTTTCAAAATATGGACTAGATTGCCGTTTAGTTTCGGAGTCACCTAGTGCAG”, the binding signal is 11200 fluorescence intensity (a.u.).

Take “ATTTTGTCTTGAGTGGTTTGGGGTTTTGTGCTATTGGGCCCGGAGTCACCTAGTGCAG”: the binding signal is 8830 fluorescence intensity (a.u.).

As for “CCGACGAACCATACCTCCCTCAGCTCCCACCGCGCACCATCGGAGTCACCTAGTGCAG”, the binding signal is 8140 fluorescence intensity (a.u.).

Regarding “CCTTACTATCATGCTCTTGTTTTTTTGCATATTTATTCAACGGAGTCACCTAGTGCAG”, the binding signal was 14300 fluorescence intensity (a.u.).

Take “CTGTTTCAAGTTTTCTTACTAGCAATGCTCATATTTACTTCGGAGTCACCTAGTGCAG”: the binding signal is 10500 fluorescence intensity (a.u.).

Regarding “CAGGGATACTATCTTTTTGGCCATGGGTTCCACAGTTACACGGAGTCACCTAGTGCAG”, the binding signal is 8150 fluorescence intensity (a.u.).

For the sequence “GCCACTACCGCTCGCCCACACATTGTCATTATGTCAACCCCGGAGTCACCTAGTGCAG”, the binding signal is 11000 fluorescence intensity (a.u.).

As to “GGGAGAGGGAACAGGGGAGGGTGGCGAGCTCCTGACCATCCGGAGTCACCTAGTGCAG”, the binding signal was 11100 fluorescence intensity (a.u.).

With “CCACCCCACATGACCGCCCATTTCCGTATTCTCCGGCAGGCGGAGTCACCTAGTGCAG”, the binding signal was 8220 fluorescence intensity (a.u.).

On to “ACACTCACTCTCTCTCTCTCTCTCTCTCTCTCTCGACATGCGGAGTCACCTAGTGCAG”, for which the binding signal is 10100 fluorescence intensity (a.u.).

On to “ACCATGCAAGATCATATACTTACAGCTTTTCTGGTTGTTTCGGAGTCACCTAGTGCAG”, for which the binding signal was 10300 fluorescence intensity (a.u.).

As to “TTATTGGGAGCGCGCGGGGTCGGGGATACGGGCCGTATCACGGAGTCACCTAGTGCAG”, the binding signal is 8790 fluorescence intensity (a.u.).

With “TGTTTAGTTCCAAAGTTTTTTTTTCCAAACTTCCAACTTTCGGAGTCACCTAGTGCAG”, the binding signal is 8220 fluorescence intensity (a.u.).

For “TCGGCTTGGTGGGGCTGGAGAACGTCTTTTCTCAATTGTGCGGAGTCACCTAGTGCAG”, the binding signal is 22000 fluorescence intensity (a.u.).

On to “TTTACGTCTCTCAAACCTCATATACTCTGGTCGTCTCTCGCGGAGTCACCTAGTGCAG”, for which the binding signal is 8190 fluorescence intensity (a.u.).

On to “AAATCTGTGTTTCCCAACTTTTGTTTTCTAGTTTATTTTTCGGAGTCACCTAGTGCAG”, for which the binding signal is 10400 fluorescence intensity (a.u.).

As to “AACGCCTCGCCACCACATGATTTCGCCTGCCTGTTGTTCTCGGAGTCACCTAGTGCAG”, the binding signal was 9090 fluorescence intensity (a.u.).

With “CTTCTCTTTGTTTTCTTGTTTGCTTGCTTGGTGTAAAGAACGGAGTCACCTAGTGCAG”, the binding signal is 16100 fluorescence intensity (a.u.).

“ATTTTTTTTTTTGTTATTGACCAGACATATGGCTAATATTCGGAGTCACCTAGTGCAG”: the binding signal was 10800 fluorescence intensity (a.u.).

Turning to “CCTACTACTCCTACCTGCTTCAGCTTTGCTTCCTGCGCATCGGAGTCACCTAGTGCAG”, the binding signal is 9610 fluorescence intensity (a.u.).

Consider “ATTTTGTTTCTCCTTGGTTGGTTTTGCTTCACCTAGATCACGGAGTCACCTAGTGCAG”, for which the binding signal is 11200 fluorescence intensity (a.u.).
